Results taken from publication PMC4949242, “Conjugative DNA Transfer Is Enhanced by Plasmid R1 Partitioning Proteins”.
Results are given in words; binding and its absence hold for the method and conditions named. Binding seen in cells or lysates may run through a third protein. A result given as binding can be weak or reduced; the word gives no strength. Tags and fused reporters may be left off the sequences shown.

Experiments:
[1] = biological target: T1, ParM with C-terminal FLAG epitope (pMS-CFLAGparM) (plasmid R1 (R1-16), in E. coli) (UniProt P11904); experiment: co-IP; E. coli MS411 co-producing one FLAG-tagged Par protein and one Tra protein pairwise from two vectors, without R1-16; 1% formaldehyde cross-linking; capture on anti-FLAG affinity gel, elution with FLAG peptide; Western blot with antibodies to Tra proteins (Figure 6)
T1 sequence: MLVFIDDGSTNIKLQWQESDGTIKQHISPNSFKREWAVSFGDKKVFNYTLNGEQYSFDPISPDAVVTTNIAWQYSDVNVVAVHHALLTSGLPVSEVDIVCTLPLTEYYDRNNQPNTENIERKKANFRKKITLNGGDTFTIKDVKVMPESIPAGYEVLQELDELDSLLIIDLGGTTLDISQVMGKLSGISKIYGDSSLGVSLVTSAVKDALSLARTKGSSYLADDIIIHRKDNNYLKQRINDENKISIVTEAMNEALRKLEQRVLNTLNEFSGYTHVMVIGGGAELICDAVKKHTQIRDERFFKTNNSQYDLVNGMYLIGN

[2] = biological target: T1, ParM with C-terminal FLAG epitope (pMS-CFLAGparM) (plasmid R1 (R1-16), in E. coli); experiment: co-IP; E. coli MS411 carrying R1-16 (native levels of Tra proteins) and a FLAG-tagged par allele; 1% formaldehyde cross-linking; capture on anti-FLAG affinity gel overnight at 4°C, elution with FLAG peptide; Western blot with antibodies to Tra proteins (Figure S2)

With “TraD, type IV coupling protein (T4CP) of plasmid R1” the binding [1] was “binds” and the binding [2] was “binds”.

With “TraC, VirB4-like channel ATPase of plasmid R1 (enzyme)” the binding [1] was “binds” and the binding [2] was “binds”.

“TraI, relaxase/helicase of plasmid R1 (enzyme)” was tested, and the binding [1] was “binds” and the binding [2] was “binds”.
